# For part of its entries the source gives two or more results. The other results are left out here. There may be further records. Values given together do not match, cause unknown; they may come from other doses, times, organisms or constructs than stated.
# Test system: Caco-2 monolayer
# Experiment: Caco-2 permeability assay
# Details: 10 µM
Structure (SMILES),Mass Balance (recovery) (A→B),Mass Balance (recovery) (B→A)
"CCCCCCCCC[C@H](O)CC(=O)CCc1ccc(O)c(OC)c1 [10G, 10-gingerol]",less than 50% and 22%,less than 50% and 44%
"CCCCC/C=C/C(=O)CCc1ccc(O)c(OC)c1 [6S, 6-shogaol]",less than 25% and 4%,less than 25% and 21%

# Source: paper PMC4177392, “Modulation of Cytochrome P450 Metabolism and Transport across Intestinal Epithelial Barrier by Ginger Biophenolics” (PLoS ONE, 2014)
